Some results were stated once for a whole list of compounds, not compound by compound.
Test system: sickled blood cells (SS blood erythrocytes)
Assay: In vitro anti-sickling activity, Emmel test on SS blood
Assay type: cell-based
Method: Blood samples were collected from “Centre de Medecine Mixte et d'Anémie SS” located in Kinshasa, Democratic Republic of Congo (DRC). The blood samples were first characterised by Hb electrophoresis on cellulose acetate gel, in order to confirm their SS nature, as previously reported by Mpiana et al., 2007^6. Confirmed SS blood samples were refrigerated at ˜4° C., and used for Emmel test.
A drop of physiological solution was put on a glass slide and a drop of SS blood was added on the physiological solution. One drop of 2% sodium metabisulphite solution was added on the slide glass which was hermetically covered using a cover glass with melted paraffin wax and kept covered for 2 hours in order to accelerate the sickling of the blood. After 2 hours in anaerobic conditions, the blood sample became deoxygenated and adopted sickle shape. Assay was observed under an optical microscope and the number of observed erythrocytes was determined using Thomas' cell (Courtejoie, J. and Hartaing, I, 1992)^7.
SS blood samples were contacted at different concentrations with diluted samples of the compounds (8), (9), (10), and (11) using physiological solution (NaCl 0.9%) as dilution solvent, according to Emmel's test procedure as reported above and optical measurements were taken.
Pictures were obtained with an optical microscope (motic). […]

SMILES	normalisation of sickled blood cells [%]
C=C(C)[C@@H]1CC[C@]2(C(=O)O)CC[C@]3(C)[C@H](CC[C@@H]4[C@@]5(C)CC[C@H](OC(C)=O)C(C)(C)[C@@H]5CC[C@]43C)[C@@H]12 [DS/10/C/Ab, 3-acetoxybetulinic acid]	> 70
C=C(C)[C@@H]1CC[C@]2(C(=O)O)CC[C@]3(C)[C@H](CC[C@@H]4[C@@]5(C)CC[C@H](O)C(C)(C)[C@@H]5CC[C@]43C)[C@@H]12 [DS/10/C/A, Betulinic acid]	> 70

Source: US8685469B2, “In vitro anti-sickling activity of betulinic acid, oleanolic acid and their derivatives” (University of KwaZulu-Natal, priority 2009, dated 2014)
